The values below come from PubChem BioAssay AID662 (National Center for Advancing Translational Sciences (NCATS), 2007).

The other results are listed elsewhere or left out. Shown are side measurements of this screen, not its main read-out; they come without a call. Most of these compounds were active or inconclusive in the main read-out, so they are no random draw. The note in brackets gives the kind of curve behind each potency; many fits are weak.

The assay is described as follows: Cell signaling CRE-BLA (Fsk stim). The note with it: CHO CRE-bla reporter (cAMP response element driving beta-lactamase), forskolin EC10, beta-lactamase ratio; measured here: 460 nm blue channel. Put shortly: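 Modulation of forskolin signalling: compounds in titration series added with EC10 NKH 477 to CHO cells carrying a CRE-driven beta-lactamase reporter, 3 h, 37C. CCF4 FRET ratio (460/530 nm, ex 405 nm) gives %activity and AC50.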
What is called AC50 is the concentration at which the activity in the assay is half-maximal. `Cc1cccc(-c2c3c(=O)n(C)c(=O)n(C)c3c3cccnn23)c1`: the concentration at half-maximal activity (AC50) was 3.16 µM [rising, full curve]. Next, `COc1ccc(C(=O)Nc2ccc(-c3cn4ccsc4n3)cc2)cc1S(=O)(=O)N1CCOCC1`: 2 µM [rising, full curve].

As to `CCOC(=O)CSc1nnc(CNC(=O)c2ccco2)n1C`, the AC50 is 25.1 µM [falling, single point]. `CCN(CC)C(=O)CN(C)S(=O)(=O)c1cccc2nsnc12`: the AC50 is 0.126 µM [falling, full curve]. With `CCn1c(SCC(=O)Nc2nc(-c3ccc(C)cc3)cs2)nnc1-c1ccccc1O` the figure was 25.1 µM [falling, single point]. Next, `CCCN(CCC)c1ncnc2c1cnn2-c1ccc(OC)cc1`: 10 µM [rising, partial curve]; `CCC(C)NC(=O)C1CCC(=O)N1Cc1ccc(C)cc1` (stereo not given): 25.1 µM [rising, single point]; `CCCN1Cc2cccc(C(=O)Nc3ccc4c(c3)OCCO4)c2C1=O`: 12.6 µM [rising, partial curve].

For `O=c1cc(N2CCOCC2)oc2c(-c3ccccc3)cccc12`, the AC50 was 2.51 µM [rising, partial curve]. With `CC(C)OCCCNC(=O)c1c(N)n(/N=C/c2ccccn2)c2nc3ccccc3nc12` the figure was 3.98 µM [rising, partial curve]. `CCOC(=O)c1cnc(SCC(=O)c2ccccc2)nc1N`: the AC50 was 12.6 µM [rising, single point].

Turning to `Cc1ccc2cc3c(N)c(C(=O)N4CCOCC4)sc3nc2c1`, the AC50 was 10 µM [rising, partial curve].

As to `CCCCn1c(NC(=O)CC)c(C#N)c2nc3ccccc3nc21`, the AC50 was 10 µM [rising, partial curve]. With `O=Nc1ccc(Nc2ccccc2)cc1`, the AC50 is 3.16 µM [falling, full curve]. For `CCCCNC(=O)c1cc2c(=O)n3cccc(C)c3nc2n1C`, the half-maximal activity concentration (AC50) was 5.01 µM [rising, partial curve]. With `CCc1cc2c(=O)n(Cc3ccco3)c(SCC(=O)N3CCCc4ccccc43)nc2s1` the figure was 3.98 µM [rising, full curve]; with `CCCCN=C(C)c1c(O)c2ccccc2oc1=O`, 10 µM [rising, single point].

In the case of `Cn1nc(C(=O)NCc2ccccc2)c2ccccc2c1=O`, the AC50 was 10 µM [rising, partial curve]. For `O=C(O)CCn1c(C(=O)O)cc2sccc21`, the concentration at half-maximal activity (AC50) was 3.98 µM [falling, single point]. Next, `Cc1ccc(NC(=O)CSC2=C(C#N)C(c3ccco3)C3=C(CC(C)(C)CC3=O)N2)cc1` (stereo not given): 12.6 µM [rising, single point].
